# The campaign covered roughly 320,000 compounds. About 22,000 (6.9%) were called active. The shares of active, inactive and inconclusive entries below differ from those in the screen. Calls follow the shape of the dose curve; as a rule, active = well fitted inhibition curve with a large enough effect; inconclusive = small, poorly fitted or top-dose-only effect, or another doubt; inactive = no such curve, though single readings can be large or run the other way. A potency beside an inconclusive call is a rough fit, not a confirmed value.
# Assay: Primary qHTS for delayed death inhibitors of the malarial parasite plastid, 96 hour incubation
# Settings: P. falciparum luciferase reporter growth; series mostly up to 28.7 µM
# Method in brief: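 Erythrocytes infected with luciferase-expressing P. falciparum were dispensed at 2% hematocrit and 0.05% parasitemia (final), then incubated with compounds 96 hours at 37 C in 5% CO2. Luminescence after detection reagent addition reported growth.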
# Potency is read from the fitted curve at half-maximal effect.
row,SMILES,Potency
1,CCc1ccccc1Nc1nc(N)nc(COC(=O)C2=COCCO2)n1,inactive
2,COC(=O)Cc1ccc(NC(=S)NCc2ccccc2)cc1,"inconclusive: 13.1 µM [inhibitor, single point]"
3,Cc1ccc(C(=O)NCCc2nnc3ccc(SCC(=O)NCc4ccc(F)cc4)nn23)cc1,active: 9.28 µM
4,CCCNS(=O)(=O)c1ccc(OCC(=O)N2CCCC2)cc1,inactive
5,Cc1cc(C)cc(-c2nnc(SCC(=O)NCc3cccs3)o2)c1,"inconclusive: 14.7 µM [inhibitor, single point]"
6,CCC(NS(=O)(=O)c1c(C)[nH]c(=O)[nH]c1=O)C12CC3CC(CC(C3)C1)C2 (configuration not stated),"inconclusive: 0.928 µM [inhibitor, full curve, poor fit]"
7,CCCNC(=O)N1CCN(Cc2ccco2)CC1,inactive
8,CC1C(=O)OC(c2ccc(Cl)cc2)C(C)(C)C1=O (configuration not stated),inactive
9,Cc1nnc(SCC(=O)Nc2cc(-c3cc(C)c(C)cc3C)nn2-c2ccccc2)s1,"inconclusive: 18.5 µM [inhibitor, single point]"
10,CCOC(=O)C1CCN(C(=O)c2cc3c(=O)n4ccccc4nc3s2)CC1,"inconclusive: 18.5 µM [inhibitor, single point]"
11,Cc1cccc(NC(=S)Nc2cccc(C(F)(F)F)c2)n1,"inconclusive: 0.37 µM [inhibitor, full curve, poor fit]"
12,CC(OC(=O)CN1C(=O)c2ccccc2C1=O)C(=O)NCc1ccccc1 (configuration not stated),inactive
13,COc1ccccc1/C=C/CN1CCCC(CCC(=O)NCc2ccccc2F)C1 (configuration not stated),"inconclusive: 0.208 µM [inhibitor, full curve, poor fit]"
14,COc1ccc2[nH]c3c(=O)n(Cc4ccncc4)cnc3c2c1,inactive
15,CC(C)c1ccc(/C=C(\c2nc3ccccc3[nH]2)S(=O)(=O)c2ccccc2)cc1,active: 2.33 µM
16,C=C(c1ccccc1)c1ccccc1N,"inconclusive: 18.5 µM [inhibitor, single point]"
17,CC(C)CNC(=O)COc1ccc(Sc2ccc(OCC(=O)NCC(C)C)cc2)cc1,"inconclusive: 0.329 µM [inhibitor, full curve]"
18,CCCNC(=O)COC(=O)c1cc(-c2ccc(OC)cc2)nc2ccccc12,inactive
19,CC(NC(=O)CCn1ccc2cc(S(=O)(=O)N3CCCC3)ccc21)c1ccccc1 (configuration not stated),"inconclusive: 11.7 µM [inhibitor, single point]"
20,Cc1ccc(-c2nnc(SCC(=O)Nc3ccc4c(c3)OCCO4)n2N)cc1,active: 10.4 µM
21,Cc1cccc(C(=O)N/N=C/c2ccc(OCC(=O)N3CCCCC3)cc2)c1,inactive
22,O=C(c1nn(-c2ccccc2)c(=O)c2ccccc12)N1CCN(c2ccccn2)CC1,"inconclusive: 18.5 µM [inhibitor, single point]"
23,COc1ccc(Cl)cc1S(=O)(=O)N1CCN=C1Cc1ccccc1,"inconclusive: 14.7 µM [inhibitor, single point]"
24,O=S(=O)(NCCc1cn2ccccc2n1)c1ccc(-c2ccccc2)cc1,"inconclusive: 16.5 µM [inhibitor, single point]"

# As a working copy, 2 of the compounds above.
row,SMILES,Potency
9,Cc1nnc(SCC(=O)Nc2cc(-c3cc(C)c(C)cc3C)nn2-c2ccccc2)s1,"inconclusive: 18.5 µM [inhibitor, single point]"
10,CCOC(=O)C1CCN(C(=O)c2cc3c(=O)n4ccccc4nc3s2)CC1,"inconclusive: 18.5 µM [inhibitor, single point]"

# (cont.)

row,SMILES,Potency
1,COC(=O)CCC(=O)Nc1cccc([N+](=O)[O-])c1,active: 11.7 µM
2,CCN(CC)CCCNC(=O)c1cc2nc3c(c(C(F)(F)F)n2n1)CCc1ccccc1-3,"inconclusive: 4.15 µM [inhibitor, single point]"
3,OC[C@H](S)CS,active: 0.601 µM
4,Cc1ccccc1-n1c(Cn2c(=O)sc3ccccc32)nnc1SCC(N)=O,inactive
5,Nc1c(-c2ccccc2)cnn1-c1ccccc1,inactive
6,COc1cccc(-n2cc(CN(C)Cc3nc(Cc4ccccc4)no3)cn2)c1,"inconclusive: 5.22 µM [inhibitor, partial curve, poor fit]"
7,COc1cc(-c2noc(C)c2C#Cc2ccccn2)cc(OC)c1OC,"inconclusive: 14.7 µM [inhibitor, single point]"
8,Cc1ccc(CCNC(=O)CN(c2ccc(C)cc2)S(=O)(=O)c2c(C)noc2C)cc1,"inconclusive: 10.4 µM [inhibitor, single point]"
9,CCN(CCNC(=O)CN1CCN(Cc2ccc(Cl)cc2)C1=O)c1ccccc1,"inconclusive: 10.4 µM [inhibitor, partial curve]"
10,O=C(O)c1ccc(CSc2nc3ccccc3o2)cc1,"inconclusive: 11.7 µM [inhibitor, single point]"
11,Cc1ccc(OCc2ccc(C(=O)NCc3cccnc3)cc2)cc1C,inactive
12,COc1ccccc1CN1CC(C(=O)NCc2nccn2C)CCC1=O (configuration not stated),inactive
13,CC(=O)Nc1ccc(NC(=O)c2ccc(NS(=O)(=O)c3cccc4cccnc34)cc2)cc1,inactive
14,CC(=O)c1ccc(NC(=O)C(C)N(C)CC(=O)Nc2ccc(N3CCOCC3)cc2)cc1 (configuration not stated),"inconclusive: 9.28 µM [inhibitor, single point]"
15,C=CCn1c(CNC(=O)c2cccs2)nnc1SCC(=O)Nc1ccc(C(=O)O)cc1,"inconclusive: 18.5 µM [inhibitor, single point]"
16,COc1cc(NC(=O)c2c(F)cccc2F)c(Cl)cc1Cl,inactive
17,Cc1c2cnn(CC(=O)O)c(=O)c2c(C)n1Cc1ccccc1,inactive
18,COc1ccc(NC(=O)/C(C#N)=C/c2ccc(-c3ccccc3C(=O)O)o2)cc1,"inconclusive: 18.5 µM [inhibitor, single point]"
19,CC(C)[C@H](NC(=O)N1CCn2c1nc1ccccc12)C(=O)N1CCCCC1,"inconclusive: 18.5 µM [inhibitor, single point]"
20,CC1CCCCN1Cc1c(C#N)c2ccccc2n1C (configuration not stated),"inconclusive: 0.0131 µM [inhibitor, full curve, poor fit]"
21,Cc1ccc(NS(=O)(=O)c2cccc(C(=O)Nc3c(C)n(C)n(-c4ccccc4)c3=O)c2)cc1,inactive
22,COc1cccc(CNC(=O)C2CCN(S(=O)(=O)c3ccc4c(c3)OCCO4)CC2)c1,"inconclusive: 2.62 µM [inhibitor, single point]"
23,O=C(/C=C/c1ccc(OCCCF)cc1)Nc1ccnc(-c2cccnc2)n1,"inconclusive: 5.22 µM [inhibitor, partial curve, poor fit]"

# From PubChem BioAssay AID504834 (National Center for Advancing Translational Sciences (NCATS), 2011)
